Results deposited as PubChem BioAssay AID1259327 (Drosophila RNAi Screening Center, 2017).

Aim: 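Data from controls in screens of zinc and manganese toxicity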
Cell system: Drosophila S2R+ cells
Reagents: long dsRNA against Drosophila genes
Timing: 5 days (water added on day 4, read one day later)
Challenge: water added as vehicle, no metal, one day before read-out
Read-out: 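Luciferase ATP signal per well, normalised to plate mean, duplicate average converted to z-score across plates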
Direction: ATP z-score: higher = more total ATP than typical wells; ATP luminescence: higher = more total ATP
Call rule: 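Called active when the ATP z-score exceeds 1.5 or falls below -1.5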
Meaning of the calls: active = hit: ATP up or down; inactive = no clear ATP change
Shown is a random part of about 3,100 deposited reagents. In the full data, 378 (12%) were called active. 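Hits include both directions; z-score sign shows ATP rise or fall; raw luminescence values are not plate-normalised.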 Not stated in the record: the amount of reagent.

{"gene knocked down":"CG17752","DRSC id":"DRSC15262","ATP z-score, duplicate mean":-0.23,"ATP luminescence, replicate 1 (RLU)":2.72e5,"ATP luminescence, replicate 2 (RLU)":7.80e5,"activity call":"inactive"}
{"gene knocked down":"CG17752","DRSC id":"DRSC26265","ATP z-score, duplicate mean":0.841,"ATP luminescence, replicate 1 (RLU)":9.63e5,"ATP luminescence, replicate 2 (RLU)":9.46e5,"activity call":"inactive"}
{"gene knocked down":"InR","DRSC id":"DRSC16717","ATP z-score, duplicate mean":-0.686,"ATP luminescence, replicate 1 (RLU)":2.91e5,"ATP luminescence, replicate 2 (RLU)":6.30e5,"activity call":"inactive"}
{"gene knocked down":"InR","DRSC id":"DRSC36685","ATP z-score, duplicate mean":-1.09,"ATP luminescence, replicate 1 (RLU)":4.57e5,"ATP luminescence, replicate 2 (RLU)":5.18e5,"activity call":"inactive"}
{"gene knocked down":"InR","DRSC id":"DRSC36686","ATP z-score, duplicate mean":-0.356,"ATP luminescence, replicate 1 (RLU)":5.08e5,"ATP luminescence, replicate 2 (RLU)":5.91e5,"activity call":"inactive"}
{"gene knocked down":"CG16736","DRSC id":"DRSC15145","ATP z-score, duplicate mean":-0.18,"ATP luminescence, replicate 1 (RLU)":2.83e5,"ATP luminescence, replicate 2 (RLU)":7.63e5,"activity call":"inactive"}
{"gene knocked down":"Gr22f","DRSC id":"DRSC00076","ATP z-score, duplicate mean":0.0683,"ATP luminescence, replicate 1 (RLU)":7.34e5,"ATP luminescence, replicate 2 (RLU)":7.67e5,"activity call":"inactive"}
{"gene knocked down":"Gr22f","DRSC id":"DRSC26841","ATP z-score, duplicate mean":-1.05,"ATP luminescence, replicate 1 (RLU)":8.75e5,"ATP luminescence, replicate 2 (RLU)":9.21e5,"activity call":"inactive"}
{"gene knocked down":"PGRP-SC1a","DRSC id":"DRSC06482","ATP z-score, duplicate mean":1.27,"ATP luminescence, replicate 1 (RLU)":7.07e5,"ATP luminescence, replicate 2 (RLU)":7.63e5,"activity call":"inactive"}
{"gene knocked down":"Oatp58Da","DRSC id":"DRSC04365","ATP z-score, duplicate mean":-0.575,"ATP luminescence, replicate 1 (RLU)":6.53e5,"ATP luminescence, replicate 2 (RLU)":6.77e5,"activity call":"inactive"}
{"gene knocked down":"Oatp58Da","DRSC id":"DRSC25499","ATP z-score, duplicate mean":0.867,"ATP luminescence, replicate 1 (RLU)":9.63e5,"ATP luminescence, replicate 2 (RLU)":9.53e5,"activity call":"inactive"}
{"gene knocked down":"CG11857","DRSC id":"DRSC14411","ATP z-score, duplicate mean":-1.6,"ATP luminescence, replicate 1 (RLU)":2.59e5,"ATP luminescence, replicate 2 (RLU)":5.09e5,"activity call":"active"}
{"gene knocked down":"mge","DRSC id":"DRSC08721","ATP z-score, duplicate mean":-1.09,"ATP luminescence, replicate 1 (RLU)":8.34e5,"ATP luminescence, replicate 2 (RLU)":6.76e5,"activity call":"inactive"}
{"gene knocked down":"bbc","DRSC id":"DRSC22309","ATP z-score, duplicate mean":0.496,"ATP luminescence, replicate 1 (RLU)":7.68e5,"ATP luminescence, replicate 2 (RLU)":1.06e6,"activity call":"inactive"}
{"gene knocked down":"Ent3","DRSC id":"DRSC09822","ATP z-score, duplicate mean":-1.9,"ATP luminescence, replicate 1 (RLU)":5.31e5,"ATP luminescence, replicate 2 (RLU)":5.26e5,"activity call":"active"}
{"gene knocked down":"Ent3","DRSC id":"DRSC29706","ATP z-score, duplicate mean":0.0529,"ATP luminescence, replicate 1 (RLU)":6.19e5,"ATP luminescence, replicate 2 (RLU)":5.49e5,"activity call":"inactive"}
{"gene knocked down":"Ktl","DRSC id":"DRSC14270","ATP z-score, duplicate mean":0.503,"ATP luminescence, replicate 1 (RLU)":7.66e5,"ATP luminescence, replicate 2 (RLU)":7.50e5,"activity call":"inactive"}
{"gene knocked down":"CG31213","DRSC id":"DRSC14312","ATP z-score, duplicate mean":-0.388,"ATP luminescence, replicate 1 (RLU)":6.56e5,"ATP luminescence, replicate 2 (RLU)":7.48e5,"activity call":"inactive"}
{"gene knocked down":"CG31213","DRSC id":"DRSC15647","ATP z-score, duplicate mean":0.737,"ATP luminescence, replicate 1 (RLU)":3.13e5,"ATP luminescence, replicate 2 (RLU)":8.91e5,"activity call":"inactive"}
{"gene knocked down":"Osi23","DRSC id":"DRSC15074","ATP z-score, duplicate mean":0.491,"ATP luminescence, replicate 1 (RLU)":5.07e5,"ATP luminescence, replicate 2 (RLU)":8.83e5,"activity call":"inactive"}
{"gene knocked down":"pll","DRSC id":"DRSC17026","ATP z-score, duplicate mean":0.0727,"ATP luminescence, replicate 1 (RLU)":7.07e5,"ATP luminescence, replicate 2 (RLU)":7.19e5,"activity call":"inactive"}
{"gene knocked down":"pll","DRSC id":"DRSC28551","ATP z-score, duplicate mean":-0.165,"ATP luminescence, replicate 1 (RLU)":8.07e5,"ATP luminescence, replicate 2 (RLU)":7.98e5,"activity call":"inactive"}
{"gene knocked down":"Hgsnat","DRSC id":"DRSC18405","ATP z-score, duplicate mean":0.445,"ATP luminescence, replicate 1 (RLU)":7.59e5,"ATP luminescence, replicate 2 (RLU)":7.45e5,"activity call":"inactive"}
{"gene knocked down":"Hgsnat","DRSC id":"DRSC24716","ATP z-score, duplicate mean":-0.481,"ATP luminescence, replicate 1 (RLU)":8.04e5,"ATP luminescence, replicate 2 (RLU)":7.77e5,"activity call":"inactive"}

Part of the list above, reformatted:
gene knocked down | DRSC id | ATP z-score, duplicate mean | ATP luminescence, replicate 1 (RLU) | ATP luminescence, replicate 2 (RLU) | activity call
Ktl | DRSC14270 | 0.503 | 7.66e5 | 7.50e5 | inactive
CG31213 | DRSC14312 | -0.388 | 6.56e5 | 7.48e5 | inactive
CG31213 | DRSC15647 | 0.737 | 3.13e5 | 8.91e5 | inactive
